Data on 6 sequences can be found in paper PMC7862700.

Chains of the proteins cited; added tags and fusions are not shown. Lines headed by an entry give the natural chain unless they say otherwise; changes in a name come on top.
UniProt Q00613: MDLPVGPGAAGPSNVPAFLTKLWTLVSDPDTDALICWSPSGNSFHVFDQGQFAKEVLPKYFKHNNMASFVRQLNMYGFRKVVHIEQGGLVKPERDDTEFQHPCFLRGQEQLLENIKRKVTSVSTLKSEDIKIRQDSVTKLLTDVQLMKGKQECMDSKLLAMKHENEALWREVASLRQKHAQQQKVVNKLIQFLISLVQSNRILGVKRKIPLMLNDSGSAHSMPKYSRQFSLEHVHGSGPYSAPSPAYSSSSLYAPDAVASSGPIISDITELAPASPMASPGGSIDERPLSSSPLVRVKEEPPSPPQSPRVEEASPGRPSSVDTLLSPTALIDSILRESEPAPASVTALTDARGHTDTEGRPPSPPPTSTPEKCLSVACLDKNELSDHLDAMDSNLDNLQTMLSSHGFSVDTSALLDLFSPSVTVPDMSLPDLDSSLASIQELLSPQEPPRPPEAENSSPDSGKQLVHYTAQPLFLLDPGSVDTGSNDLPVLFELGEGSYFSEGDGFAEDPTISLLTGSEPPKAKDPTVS

Only a part is listed here, and it is no random draw. For part of these data: At the low end of the ranking, values are background and their order means little. The list shows a part of the results. For part of these data: The source does not settle which construct or isoform was used.

One assay concerns the target HSF1 (UniProt Q00613). The experiment in a line: DAPPL (digital affinity profiling via proximity ligation, sequencing). The settings on record: 10 mM Tris-HCl pH 7.5, 50 mM NaCl, 1 mM DTT, 4% glycerol, room temperature, 30 min; GST-TFs on glutathione beads, 16-mer random dsDNA library, 0.1% …; high values mean tight binding; double strand, one strand shown; scale: fold enrichment (6-mer frequency, TF over GST control).

Another assay has as its target T1, ELF2 (UniProt Q15723).
T1 sequence: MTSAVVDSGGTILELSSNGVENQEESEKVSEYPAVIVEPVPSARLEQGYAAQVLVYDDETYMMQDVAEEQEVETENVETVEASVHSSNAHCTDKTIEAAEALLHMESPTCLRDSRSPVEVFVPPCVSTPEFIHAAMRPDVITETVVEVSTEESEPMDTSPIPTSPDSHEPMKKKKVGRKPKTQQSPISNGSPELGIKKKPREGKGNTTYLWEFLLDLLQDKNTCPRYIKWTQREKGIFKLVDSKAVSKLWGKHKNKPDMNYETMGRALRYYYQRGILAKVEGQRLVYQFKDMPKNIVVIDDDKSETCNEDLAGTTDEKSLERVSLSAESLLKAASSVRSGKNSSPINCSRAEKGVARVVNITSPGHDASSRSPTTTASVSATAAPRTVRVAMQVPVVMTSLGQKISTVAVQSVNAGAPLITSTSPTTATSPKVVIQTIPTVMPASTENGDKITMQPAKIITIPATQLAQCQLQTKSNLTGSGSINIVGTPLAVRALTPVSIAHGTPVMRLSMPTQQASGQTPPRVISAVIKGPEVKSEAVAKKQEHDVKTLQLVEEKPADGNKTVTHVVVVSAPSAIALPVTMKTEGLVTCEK
Described as above. The following applies: 10 mM Tris-HCl pH 7.5, 50 mM NaCl, 1 mM DTT, 4% glycerol, room temperature, 30 min; GST-TFs on glutathione beads, 16-mer random dsDNA library, 0.1% …; high values mean tight binding; double strand, one strand shown; scale: fold enrichment (6-mer frequency, TF over GST control).

As for CAACAG, the binding signal stood at 0.751 in the assay with HSF1 and 0.898 with ELF2.
On the same counts, the results for CGCAGT are 0.644 and 0.728.
For TCGGAC, in that order: 0.343 and 0.359.
For the sequence TTGTCG, the values for the binding signal with HSF1 and with ELF2 were 0.803 and 0.83, respectively.
In the case of GTGAAG, the binding signal was 0.543 with HSF1 and 0.574 with ELF2.
For CGCGGA, in that order: 0.701 and 1.23.
